Measurements reported in PubChem BioAssay AID1259254 (NCATS, 2017).

Test: 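Finding genes that stop cells copying their DNA twice in one cycle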 (primary screen)
Cell system: human HCT116 colorectal cancer cells
Reagents: single siRNA against human genes
Time to read-out: 3 days
Measurement: 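Nuclei stained with Hoechst and imaged; cell-cycle phase assigned by DNA content; G2 share scaled per plate, non-targeting siRNA 0%, GMNN siRNA 100%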
Direction: G2 robust z-score and G2 cells, % of GMNN control: higher = more G2 cells, more excess DNA replication; raw share of cells in G2: higher = larger share of cells with G2 DNA content
Call rule: 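An siRNA counts as active if its G2 robust z-score lies at least 5 MADs above the screen median; here such calls match roughly 38% of GMNN control or more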
The deposit covers about 59,000 reagents; shown is a part drawn at random. About 1,550 of all reagents (2.6%) were called active. 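G2 share is only a proxy for re-replication; each gene was hit by three separate siRNAs, and active genes were retested.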 Raw values vary from plate to plate and are shown uncorrected. The numbers tell different reagents against one gene apart. The record does not give: the amount of reagent.

gene | reagent no. | G2 robust z-score | G2 cells, % of GMNN control | raw share of cells in G2 (%) | Outcome
DCUN1D5 | 1 | 2.11 | 17.8 | 10 | inactive
DCUN1D5 | 2 | 0.056 | 3.36 | 4.45 | inactive
DCUN1D5 | 3 | -0.062 | 2.53 | 3.17 | inactive
MTRF1L | 1 | -1.09 | -4.7 | 1.92 | inactive
MTRF1L | 2 | -1.34 | -6.48 | 1.54 | inactive
MTRF1L | 3 | -0.544 | -0.86 | 2.91 | inactive
SLC45A2 | 1 | 0.492 | 6.43 | 6.31 | inactive
SLC45A2 | 2 | 0.273 | 4.89 | 6.4 | inactive
SLC45A2 | 3 | 1.69 | 14.9 | 7.94 | inactive
ADCYAP1R1 | 1 | 4.22 | 32.7 | 17.5 | inactive
ADCYAP1R1 | 2 | 1.29 | 12 | 8.73 | inactive
ADCYAP1R1 | 3 | 0.812 | 8.68 | 5.93 | inactive
SYT16 | 1 | -0.507 | -0.597 | 3.91 | inactive
SYT16 | 2 | -0.792 | -2.61 | 2.68 | inactive
SYT16 | 3 | 0.898 | 9.29 | 5.22 | inactive
IFT46 | 1 | -0.284 | 0.966 | 4.73 | inactive
IFT46 | 2 | 0.415 | 5.89 | 7.27 | inactive
IFT46 | 3 | -0.113 | 2.17 | 3.72 | inactive
PDE4C | 1 | 0.252 | 4.74 | 6.34 | inactive
PDE4C | 2 | -0.429 | -0.0498 | 4.29 | inactive
PDE4C | 3 | -0.0949 | 2.3 | 4.19 | inactive
STK36 | 1 | -0.522 | -0.702 | 5.37 | inactive
STK36 | 2 | -0.712 | -2.04 | 4.45 | inactive
STK36 | 3 | -0.0102 | 2.9 | 4.61 | inactive
UPF3B | 1 | 0.273 | 4.89 | 6.71 | inactive
UPF3B | 2 | -0.174 | 1.75 | 5.39 | inactive
UPF3B | 3 | -0.632 | -1.48 | 2.31 | inactive
ITPA | 1 | 1.25 | 11.8 | 8.62 | inactive
ITPA | 2 | -1.05 | -4.4 | 2.98 | inactive
ITPA | 3 | 0.0703 | 3.46 | 4.54 | inactive
TBX4 | 1 | -0.704 | -1.98 | 2.52 | inactive
TBX4 | 2 | -0.576 | -1.09 | 4.31 | inactive
TBX4 | 3 | 5.55 | 42 | 21.1 | active
GOLGA2P5 | 1 | 1.04 | 10.3 | 6.85 | inactive
GOLGA2P5 | 2 | -0.256 | 1.16 | 3.2 | inactive
GOLGA2P5 | 3 | -0.968 | -3.84 | 4.17 | inactive
XKR7 | 1 | -0.776 | -2.49 | 3.13 | inactive
XKR7 | 2 | 2.45 | 20.2 | 12.1 | inactive
XKR7 | 3 | -0.579 | -1.11 | 3.74 | inactive
HCFC1R1 | 1 | -0.341 | 0.571 | 3.81 | inactive
HCFC1R1 | 2 | 2.7 | 22 | 13.5 | inactive
HCFC1R1 | 3 | -0.785 | -2.56 | 2.35 | inactive
SENP8 | 1 | 1.98 | 16.9 | 10.9 | inactive
SENP8 | 2 | -1.27 | -5.97 | 2.4 | inactive
SENP8 | 3 | -0.357 | 0.455 | 5.88 | inactive
PROM1 | 1 | -0.147 | 1.93 | 5.99 | inactive
PROM1 | 2 | 0.108 | 3.73 | 5.37 | inactive
PROM1 | 3 | -0.318 | 0.731 | 3.61 | inactive
WDCP | 1 | 0.0615 | 3.4 | 5.86 | inactive
WDCP | 2 | 2.2 | 18.4 | 12.4 | inactive
WDCP | 3 | -0.271 | 1.06 | 2.67 | inactive
PROP1 | 1 | -0.0889 | 2.34 | 4.92 | inactive
PROP1 | 2 | -1.42 | -7.04 | 2.56 | inactive
PROP1 | 3 | -0.442 | -0.144 | 4.62 | inactive
LOC728114 (retired record) | 1 | 1.26 | 11.8 | 8.02 | inactive
LOC728114 (retired record) | 2 | 0.313 | 5.17 | 4.7 | inactive
LOC728114 (retired record) | 3 | 0.167 | 4.14 | 5.17 | inactive
PCDH8 | 1 | -0.801 | -2.67 | 2.29 | inactive
PCDH8 | 2 | -0.139 | 1.99 | 5.96 | inactive
PCDH8 | 3 | -0.6 | -1.26 | 4.24 | inactive
ST8SIA4 | 1 | 1.06 | 10.5 | 10 | inactive
ST8SIA4 | 2 | -0.767 | -2.43 | 3.68 | inactive
ST8SIA4 | 3 | -0.43 | -0.0554 | 4.24 | inactive
POLR3F | 1 | 0.274 | 4.9 | 5.42 | inactive
POLR3F | 2 | 1.18 | 11.2 | 10.9 | inactive
POLR3F | 3 | 0.99 | 9.94 | 10 | inactive
SDHAF4 | 1 | -0.5 | -0.551 | 3.97 | inactive
SDHAF4 | 2 | 3.77 | 29.5 | 12.5 | inactive
SDHAF4 | 3 | 0.328 | 5.27 | 4.49 | inactive
